Out of some 140,000 compounds screened, about 4,300 (3.1%) were called active. Inconclusive results, whose numbers are uncertain, are shown with a selection of clear calls.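 Rule for the calls: active = readout at or below -70, meaning at least 70% loss of cells showing the perinucleolar compartment, a nuclear body marking cancer cells; inconclusive = readout between -30 and a set limit; inactive = the rest.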
Assay: High Content Assay for Compounds that inhibit the Assembly of the Perinucleolar Compartment;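 note: plate controls were DMSO wells for no effect and camptothecin positive control wells for full effect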
Conditions: PC3M PTB-GFP, PNC prevalence imaging, 16 h; at 10 µM; hits give low values
How it was run: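 Compounds are pinned in duplicate onto adhered PC3M cells stably expressing GFP-tagged PTB and incubated 16 h at 37 C. Cells are then fixed, nuclei stained with Hoechst, and PNC-positive cells counted.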
For CC(=O)Nc1ccc(-c2nc(C)c(C(C)=O)n2O)cc1, the activity change (PNC), negative = inhibition was inconclusive: -38.4%.
With Oc1[nH]c(=S)sc1/C=C1\C(c2ccccc2)=Nc2ccccc21 the activity change (PNC), negative = inhibition was inconclusive: -68.8%.
In the case of CS(=O)(=O)N(Cc1ccccc1)c1ccc(C(=O)NCc2cccnc2)cc1, the activity change (PNC), negative = inhibition is reported as inconclusive: -31.2%.
For O=C1CC(c2ccc3c(c2)OCO3)c2cc3c(cc2N1)OCO3 (stereo unspecified), the activity change (PNC), negative = inhibition was inconclusive: -39.1%.
In the case of CCNC(=S)N(Cc1ccc(OC)cc1)C1CC(=O)N(c2ccc(OCC)cc2)C1=O (stereo unspecified), the activity change (PNC), negative = inhibition is reported as inconclusive: -60.9%.
With CN(CCc1ccccn1)C(=O)c1nn2c(C(F)(F)F)cc(-c3ccco3)nc2c1Cl the activity change (PNC), negative = inhibition was inactive: 14.1%.
With COc1ccc(S(=O)(=O)NC(C)(C)C)cc1-c1nnc2c3ccccc3c(C)nn12 the activity change (PNC), negative = inhibition was inactive: 35.9%.
With Cc1ccc(C(=O)NN(CCC(=O)NC(C)(C)C)C2=NS(=O)(=O)c3ccccc32)cc1 the activity change (PNC), negative = inhibition was inactive: 22.1%.
With COc1ccccc1-c1nc(C#N)c(N2CCN(Cc3ccccc3)CC2)o1 the activity change (PNC), negative = inhibition was inconclusive: -51.7%.
In the case of Cc1ccc(C)c(S(=O)(=O)Nc2ccc(O)cc2)c1, the activity change (PNC), negative = inhibition is reported as inactive: -2.44%.
For Cc1cccc(NC(=S)N2CCN(C(=O)C3CCCO3)CC2)c1 (stereo unspecified), the activity change (PNC), negative = inhibition was inconclusive: -50.1%.
With O=C(c1cc2ccccc2oc1=O)N(Cc1cccs1)Cc1ccccc1Cl the activity change (PNC), negative = inhibition was inconclusive: -40.9%.
With COC(=O)c1onc(-c2c(OC)cc(OC)cc2OC)c1C(=O)OC the activity change (PNC), negative = inhibition was inconclusive: -66.3%.
With CCOC(=O)N1CCN(c2cc(=O)n(-c3ccc(OC)cc3)c(=O)[nH]2)CC1 the activity change (PNC), negative = inhibition was inconclusive: -33.1%.
In the case of COc1ccc(-c2[nH]nc3oc(=O)cc(C)c23)cc1, the activity change (PNC), negative = inhibition is reported as inconclusive: -39.3%.
With CCOC(=O)c1c(NC(=O)COC(=O)c2cc(OC)c(OC)cc2[N+](=O)[O-])sc(C)c1CC the activity change (PNC), negative = inhibition was inconclusive: -54.4%.
With CC1CC(=O)C(C2c3ccccc3CCN2C(=O)CCl)C(=O)C1 (stereo unspecified) the activity change (PNC), negative = inhibition was inactive: -3.21%.
For COC(=O)c1ccc(-c2nc(-c3ccc(Br)o3)no2)cc1, the activity change (PNC), negative = inhibition was inconclusive: -56.9%.
For CCOc1ccc2nc(Cl)c(/C=C/C(=O)c3ccco3)cc2c1, the activity change (PNC), negative = inhibition was inconclusive: -45.9%.
With O=[N+]([O-])c1cccnc1N1CCOCC1 the activity change (PNC), negative = inhibition was inconclusive: -47.9%.
With Cc1ccc(NC(=O)COC(=O)CCC(=O)c2cccs2)cc1 the activity change (PNC), negative = inhibition was inconclusive: -39.1%.
In the case of Brc1ccc2ncnc(Nc3ccc(N4CCOCC4)cc3)c2c1, the activity change (PNC), negative = inhibition is reported as inactive: 4.3%.
For CCN1C(=O)/C(=C/c2c(C)nn(C)c2C)SC1=S, the activity change (PNC), negative = inhibition was inconclusive: -52.1%.
With Nc1nnc(CCc2ccccc2)s1 the activity change (PNC), negative = inhibition was inactive: -4.11%.
In the case of O=C(/C=C/c1cccc([N+](=O)[O-])c1)NCCSCc1ccc(Cl)cc1, the activity change (PNC), negative = inhibition is reported as inactive: -15.5%.
With O=C(Nc1ccccc1Oc1ccccc1)C1CC1 the activity change (PNC), negative = inhibition was inconclusive: -41.4%.
For N#Cc1c(/N=C/N2CCOCC2)sc2c1CCCCC2, the activity change (PNC), negative = inhibition was inconclusive: -62.1%.
With CCCOC(=O)c1ccc(Oc2c(-c3ccc(OC)cc3O)n[nH]c2C)cc1 the activity change (PNC), negative = inhibition was inconclusive: -33%.
With O=C(c1cc(C2CC2)on1)N1CCN(c2ccccc2)CC1 the activity change (PNC), negative = inhibition was inactive: 9.69%.
With CCN(Cc1ccccc1)S(=O)(=O)c1ccc2oc(C(=O)O)c(C)c2c1 the activity change (PNC), negative = inhibition was inconclusive: -38.6%.
For O=C(c1ccc(Cl)cc1)c1oc2ccccc2c1CS(=O)c1ccc(Cl)cc1 (stereo unspecified), the activity change (PNC), negative = inhibition was inconclusive: -41.7%.
In the case of CCOC(=O)CSc1nc2ccc(N)cc2s1, the activity change (PNC), negative = inhibition is reported as inactive: 49.2%.
In the case of O=c1cc(O)c2c(=O)n(-c3ccccc3)c3c(c2o1)CCCCCC3, the activity change (PNC), negative = inhibition is reported as active: -87.9%.
With COc1ccccc1NC(=O)Nc1c(C)n(C)n(-c2ccccc2)c1=O the activity change (PNC), negative = inhibition was inconclusive: -31.2%.
For COC(=O)/C(=N/Nc1cccc(C)c1)N1CCCc2ccccc21, the activity change (PNC), negative = inhibition was inconclusive: -79.8%.
In the case of COC(=O)Nc1sccc1C(=O)Nc1sccc1C(=O)OC, the activity change (PNC), negative = inhibition is reported as inconclusive: -49.8%.
For COc1ccccc1OCC(=O)NNC(=O)c1ccoc1C, the activity change (PNC), negative = inhibition was inactive: 45.6%.
For CCn1c(N)c(C(=O)NCCCOC)sc1=S, the activity change (PNC), negative = inhibition was inconclusive: -33.2%.
With O=C(O)Cc1ccc(NC(=S)NCc2ccco2)cc1 the activity change (PNC), negative = inhibition was inactive: -10.4%.
With O=S(=O)(c1cccs1)N1CCC(Cc2ccccc2)CC1 the activity change (PNC), negative = inhibition was inconclusive: -39.8%.
In the case of CCN(CCCNC(=O)C1CCN(S(=O)(=O)c2cnc[nH]2)CC1)c1cccc(C)c1, the activity change (PNC), negative = inhibition is reported as inactive: -23.5%.
In the case of CCC(=O)Oc1ccc(C2N(C(=O)CC)CCN2S(=O)(=O)c2ccc(C)cc2)cc1OC (stereo unspecified), the activity change (PNC), negative = inhibition is reported as inconclusive: -57.8%.
With O=C(CN1C(=O)C2C3C=CC(C4CC34)C2C1=O)OCC(=O)c1ccccc1 (stereo unspecified) the activity change (PNC), negative = inhibition was inactive: 13.4%.
In the case of COC(=O)CCSCc1cn2cc(Cl)ccc2n1, the activity change (PNC), negative = inhibition is reported as inactive: 53.6%.
For O=C(CSc1ccc2ccccc2c1)Nc1ccncc1, the activity change (PNC), negative = inhibition was inconclusive: -36.2%.
In the case of CCOC(=O)c1c(NC(=O)c2ccc(Cl)cc2)csc1C, the activity change (PNC), negative = inhibition is reported as inconclusive: -31.4%.
With O=C(Nc1cc(Cl)cc(Cl)c1)C1CCC(=O)N1Cc1ccccc1Cl (stereo unspecified) the activity change (PNC), negative = inhibition was inconclusive: -60.9%.
For CN1C(=S)SC(C)(NO)C1(C)C (stereo unspecified), the activity change (PNC), negative = inhibition was inconclusive: -55.8%.
For N#Cc1ccccc1NC(=O)CSc1nnc(-c2ccccc2)n1-c1ccccc1, the activity change (PNC), negative = inhibition was inconclusive: -78.7%.
In the case of CCN(CC)S(=O)(=O)c1ccc(S(=O)(=O)Nc2ccc3c(c2)oc2ccccc23)cc1, the activity change (PNC), negative = inhibition is reported as inactive: -26.7%.
For CCn1c(NC(=O)c2ccc(C)cc2)c2ccccc2nc1=O, the activity change (PNC), negative = inhibition was active: -90.4%.
In the case of CC(C)CCn1c(CN2CCN(Cc3ccccc3)CC2)nc2c1c(=O)[nH]c(=O)n2C, the activity change (PNC), negative = inhibition is reported as inactive: 2.27%.
In the case of Cc1cc(-c2ccccc2)n2ncc(-c3ccccc3)c2n1, the activity change (PNC), negative = inhibition is reported as inconclusive: -39%.
For Cc1c(C(N)=O)sc2nc(-c3ccccc3)cn12, the activity change (PNC), negative = inhibition was inconclusive: -40.2%.
In the case of CCc1c(C)c(C#N)c2nc3ccccc3n2c1NCCN(C)C, the activity change (PNC), negative = inhibition is reported as inconclusive: -56.5%.
In the case of O=C(NCc1ccco1)C1(S(=O)(=O)c2ccc(Cl)cc2)CC1, the activity change (PNC), negative = inhibition is reported as inconclusive: -45.2%.
With COc1ccc(-c2cc(C(F)(F)F)nc(N3CCN(Cc4ccccc4)CC3)n2)cc1OC the activity change (PNC), negative = inhibition was inconclusive: -61.8%.
For CC1(C)Cc2c(C#N)c(NCc3ccco3)nc(-c3ccco3)c2CO1, the activity change (PNC), negative = inhibition was inconclusive: -78.8%.
With CCN(CC)C(=O)c1scc2c1OCCO2 the activity change (PNC), negative = inhibition was inactive: 37.5%.
For N#CC(C#N)=c1ccc2c(c1)NC1(CCCCC1)N=2, the activity change (PNC), negative = inhibition was inconclusive: -61.7%.
With C(=N\N1CCN(Cc2cccc3ccccc23)CC1)/c1ccco1 the activity change (PNC), negative = inhibition was inconclusive: -52%.
With Cc1nn(C)c(Oc2ccccc2)c1CCNS(=O)(=O)c1ccccc1 the activity change (PNC), negative = inhibition was inconclusive: -63.4%.
For CC(C)(C)c1cc(NC(=O)c2cc(F)c(F)c(F)c2F)no1, the activity change (PNC), negative = inhibition was inactive: 12%.
For CCOC(=O)CN1C(=O)C(C)(C)Oc2ccc(C(=O)Nc3ccccc3)cc21, the activity change (PNC), negative = inhibition was inactive: 11.6%.
For CCCN(CCC)CC(O)Cn1cc(/C=C/C(=O)c2cccs2)c2ccccc21 (stereo unspecified), the activity change (PNC), negative = inhibition was inactive: -24%.
In the case of CCC(C)(C)NC(=O)Cc1ccccc1OC, the activity change (PNC), negative = inhibition is reported as inactive: 31.6%.
With CCOC(=O)C1C(=O)CC(C)(O)C(C(=O)OCC)C1/C=C/c1ccccc1 (stereo unspecified) the activity change (PNC), negative = inhibition was inactive: 20.3%.
With COc1cc(SC)ccc1C(=O)Nc1ccon1 the activity change (PNC), negative = inhibition was inconclusive: -46.7%.
In the case of COc1ccc(N2CCN(c3nc4c(c(=O)n(C)c(=O)n4C)n3Cc3ccccc3)CC2)cc1, the activity change (PNC), negative = inhibition is reported as inactive: 36.7%.
With O=C(CCCN1C(=O)CCC1=O)Nc1ccc2c(c1)OCCO2 the activity change (PNC), negative = inhibition was inactive: -11.7%.
With O=C(COC(=O)c1ccccc1NC(=O)C1CC1)c1ccc2c(c1)OCCO2 the activity change (PNC), negative = inhibition was inconclusive: -40.7%.
With CCC(=O)N1CCc2cc(S(=O)(=O)CCC(=O)N3CCc4ccccc4C3)ccc21 the activity change (PNC), negative = inhibition was inconclusive: -43.1%.
In the case of NC(=O)C1CCN(C(=O)Cc2ccc([N+](=O)[O-])cc2)CC1, the activity change (PNC), negative = inhibition is reported as inconclusive: -50.2%.
For C#CCCCc1nc2ccccc2c(=O)n1N, the activity change (PNC), negative = inhibition was inconclusive: -44.5%.
With CCN(CC)S(=O)(=O)c1cccc(C(=O)N[C@H](C(=O)OCC(=O)NC(=O)NC)C(C)C)c1 the activity change (PNC), negative = inhibition was inactive: 57.3%.
For CCCCn1c(SCC(=O)Nc2nnc(CC)s2)nc2c1c(=O)n(C)c(=O)n2C, the activity change (PNC), negative = inhibition was inconclusive: -37.1%.
With Brc1csc(/C=N/Nc2nc3ccccc3s2)c1 the activity change (PNC), negative = inhibition was inconclusive: -45.4%.
In the case of CC(C)OCCCN1C(=O)c2[nH]nc(-c3ccccc3O)c2C1c1cccc(Cl)c1 (stereo unspecified), the activity change (PNC), negative = inhibition is reported as inconclusive: -33.1%.
With COc1ccc(-c2cnc(N)nc2-c2ccc(OC)cc2O)cc1 the activity change (PNC), negative = inhibition was inactive: 5.85%.
For CCn1c(SCC(=O)Nc2ccc3c(c2)OCCO3)nnc1-c1ccco1, the activity change (PNC), negative = inhibition was inactive: -20.7%.
In the case of CC(C)n1c(=S)[nH]c2c1c(=O)[nH]c(=O)n2C, the activity change (PNC), negative = inhibition is reported as inactive: 16.2%.
In the case of O=C(O)c1nn(-c2ccccc2)nc1-c1nn(-c2ccccc2)nc1C(=O)O, the activity change (PNC), negative = inhibition is reported as inactive: 35.8%.
In the case of CN1C(=O)c2ccc(NC(=S)NC(=O)C(C)(C)C)cc2C1=O, the activity change (PNC), negative = inhibition is reported as inactive: 42.3%.
In the case of N/C(=N\OC(=O)c1ccc2c(c1)OCO2)c1ccc(Cl)cc1, the activity change (PNC), negative = inhibition is reported as inconclusive: -58.2%.
For CCCCN(CC)CCCNC(=O)CC1Oc2ccccc2NC1=O (stereo unspecified), the activity change (PNC), negative = inhibition was active: -109%.
For Cc1ccccc1OCc1nnc(SCC(=O)Nc2ccc3nc(SCC(=O)Nc4ccccc4)sc3c2)n1C, the activity change (PNC), negative = inhibition was inconclusive: -49.4%.
In the case of O=S(Cc1ccccc1)CC(O)(c1ccccc1)c1ccccc1 (stereo unspecified), the activity change (PNC), negative = inhibition is reported as inconclusive: -36.6%.
With Cc1cccc(C)c1-n1c(C)cc(/C=C2\NC(=O)NC2=O)c1C the activity change (PNC), negative = inhibition was inactive: -13.7%.
For CCOc1ccccc1NC(=O)CSc1nnnn1-c1ccccc1, the activity change (PNC), negative = inhibition was inconclusive: -31.2%.
For COCCOC(=O)C(C#N)c1nc2ccccc2nc1N1CCN(Cc2ccccc2)CC1 (stereo unspecified), the activity change (PNC), negative = inhibition was inconclusive: -31%.
In the case of CCOC(=O)c1ccc(N2C(=O)c3n[nH]c(C)c3C2c2ccc(OC)cc2)cc1 (stereo unspecified), the activity change (PNC), negative = inhibition is reported as inconclusive: -30.1%.

From PubChem BioAssay AID2417 (National Center for Advancing Translational Sciences (NCATS), 2010)
